From paper doi:10.1101/2020.08.16.252585
These are yes or no findings as the source states them, for the method shown. In cells and extracts the contact can be indirect. Some results given as binding are weak or reduced against the parent protein; the word gives no strength.

Chains of the proteins cited; added tags and fusions are not shown. Residues count along the entry.
UniProt P43220, residues 24-463: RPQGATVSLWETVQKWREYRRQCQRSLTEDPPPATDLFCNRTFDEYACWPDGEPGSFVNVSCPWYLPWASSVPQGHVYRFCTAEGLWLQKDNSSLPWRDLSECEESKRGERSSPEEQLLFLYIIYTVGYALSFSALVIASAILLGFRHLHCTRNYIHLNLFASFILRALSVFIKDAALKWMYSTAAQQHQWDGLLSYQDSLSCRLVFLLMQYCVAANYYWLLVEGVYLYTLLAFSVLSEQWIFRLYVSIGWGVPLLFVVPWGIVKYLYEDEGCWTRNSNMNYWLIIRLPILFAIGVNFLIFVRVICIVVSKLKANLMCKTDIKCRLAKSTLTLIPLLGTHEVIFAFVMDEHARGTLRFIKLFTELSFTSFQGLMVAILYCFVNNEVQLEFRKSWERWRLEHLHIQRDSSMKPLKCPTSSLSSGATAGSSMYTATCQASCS
UniProt P29066: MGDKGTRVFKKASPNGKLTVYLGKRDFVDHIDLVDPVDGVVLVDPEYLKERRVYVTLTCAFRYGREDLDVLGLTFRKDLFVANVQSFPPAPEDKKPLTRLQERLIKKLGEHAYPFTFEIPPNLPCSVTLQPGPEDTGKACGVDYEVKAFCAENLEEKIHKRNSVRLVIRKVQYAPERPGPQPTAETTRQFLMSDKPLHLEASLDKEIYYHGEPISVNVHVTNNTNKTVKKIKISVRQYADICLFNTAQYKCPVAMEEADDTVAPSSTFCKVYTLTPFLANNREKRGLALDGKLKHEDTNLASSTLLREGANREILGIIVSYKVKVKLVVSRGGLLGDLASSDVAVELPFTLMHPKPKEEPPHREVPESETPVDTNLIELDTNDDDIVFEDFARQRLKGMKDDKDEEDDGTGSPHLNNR

Biological target: GLP-1R-Rluc8 (human) (UniProt P43220)
Experiment: FRET or BRET

binding: binds
Substance: rat β-arrestin1-Venus (from UniProt P29066 1-418)
